Literature values as cited in patent publication US20050085419A1, “Anti-growth factor receptor avidin fusion proteins as universal vectors for drug delivery” (The Regents of the University of California, priority 1999, published 2005).

Conditions: after 60 min

CN1CC[C@]23c4c5ccc(O)c4O[C@H]2[C@@H](O)C=C[C@H]3[C@H]1C5 [morphine]
brain uptake: 0.081 % ID/g
